Source: article PMC11628322
Results are given in words; binding and its absence hold for the method and conditions named. In cells and extracts the contact can be indirect. These calls come from enrichment with a bait or labelling near it, and not all partners need be listed. Tags and fused reporters may be left off the sequences shown.

Protein sequences, listed by entry. Tags and fused reporters are not part of them. Residues count along the entry.
UniProt P30530, residues 26-894: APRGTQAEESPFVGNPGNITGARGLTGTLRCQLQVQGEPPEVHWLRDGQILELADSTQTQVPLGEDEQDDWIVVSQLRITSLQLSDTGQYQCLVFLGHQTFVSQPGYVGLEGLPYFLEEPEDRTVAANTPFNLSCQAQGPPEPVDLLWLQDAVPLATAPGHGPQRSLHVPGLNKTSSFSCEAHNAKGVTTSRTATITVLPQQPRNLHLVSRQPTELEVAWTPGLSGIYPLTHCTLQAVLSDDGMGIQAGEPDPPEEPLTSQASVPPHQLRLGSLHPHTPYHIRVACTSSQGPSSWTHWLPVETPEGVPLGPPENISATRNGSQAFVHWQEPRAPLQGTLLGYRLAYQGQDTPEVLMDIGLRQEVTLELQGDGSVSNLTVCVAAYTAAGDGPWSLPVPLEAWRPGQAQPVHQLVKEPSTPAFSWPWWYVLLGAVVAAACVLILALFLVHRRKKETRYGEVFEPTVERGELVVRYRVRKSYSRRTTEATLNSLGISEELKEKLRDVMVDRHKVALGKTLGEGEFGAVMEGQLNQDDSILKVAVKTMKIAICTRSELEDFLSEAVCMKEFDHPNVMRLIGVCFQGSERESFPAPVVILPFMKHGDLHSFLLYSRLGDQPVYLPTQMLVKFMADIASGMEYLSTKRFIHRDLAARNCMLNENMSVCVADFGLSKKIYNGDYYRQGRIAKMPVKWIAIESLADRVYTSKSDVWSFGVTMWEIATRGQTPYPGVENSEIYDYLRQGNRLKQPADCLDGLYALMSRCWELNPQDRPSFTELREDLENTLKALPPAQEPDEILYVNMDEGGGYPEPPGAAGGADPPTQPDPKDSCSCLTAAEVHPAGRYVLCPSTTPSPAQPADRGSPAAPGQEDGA

Target: T1, Flag-PFKP (Phosphofructokinase, Platelet Type, labeled with a 3x Flag tag) (UniProt Q01813)
T1 sequence: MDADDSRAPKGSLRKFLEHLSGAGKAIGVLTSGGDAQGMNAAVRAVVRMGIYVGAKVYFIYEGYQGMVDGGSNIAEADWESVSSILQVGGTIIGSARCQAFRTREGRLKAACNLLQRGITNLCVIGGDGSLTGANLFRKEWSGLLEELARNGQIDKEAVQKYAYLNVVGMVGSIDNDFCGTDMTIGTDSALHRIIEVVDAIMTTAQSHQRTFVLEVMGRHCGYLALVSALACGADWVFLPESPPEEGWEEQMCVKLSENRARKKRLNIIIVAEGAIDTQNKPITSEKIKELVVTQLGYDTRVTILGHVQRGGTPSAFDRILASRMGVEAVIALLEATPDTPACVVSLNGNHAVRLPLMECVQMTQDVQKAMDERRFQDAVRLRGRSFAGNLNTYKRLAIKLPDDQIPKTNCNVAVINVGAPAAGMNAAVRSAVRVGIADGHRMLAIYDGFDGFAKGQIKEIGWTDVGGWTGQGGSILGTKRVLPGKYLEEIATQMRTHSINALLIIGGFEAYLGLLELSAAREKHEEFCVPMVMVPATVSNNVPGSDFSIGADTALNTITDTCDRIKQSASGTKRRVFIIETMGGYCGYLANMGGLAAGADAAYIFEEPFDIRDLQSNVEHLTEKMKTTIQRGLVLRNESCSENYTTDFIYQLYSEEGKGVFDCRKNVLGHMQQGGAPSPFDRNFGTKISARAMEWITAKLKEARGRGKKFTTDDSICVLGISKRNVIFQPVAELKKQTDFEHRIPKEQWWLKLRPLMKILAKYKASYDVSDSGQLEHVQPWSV
Assay: affinity purification with mass spectrometry; anti-Flag magnetic beads on lysate (IP lysis buffer) of H1299 cells with Flag-PFKP overexpression, empty vector as negative control; beads sent for 60 min mass spectrum analysis

binding: binds
Substance: tyrosine-protein kinase receptor UFO (AXL) (from UniProt P30530 26-894)
